From US4390523A, “Sorbose for inhibiting fermentation acids in the mouth” (priority 1972, dated 1983) come the findings set out here.

This series is described as follows: Sweetening power and taste. The conditions noted are these: relative to saccharose.

“Also recorded” adds a separate entry of the source.

Regarding `O=C(CO)[C@H](O)[C@@H](O)[C@H](O)CO` [sorbose], the sweetening power result is reported as “pronounced sweet taste comparable to that of saccharose; also recorded: substantially the same sweetening power as saccharose”.
